# Experiment: Recrystallization of applied saturated drug solution during the permeation experiment
# Type: physicochemical
# Conditions: applied crystal-free
# Description: […] of this solution was given on heat-separated human epidermis (breast, area 4.5 cm^2) which was mounted on a Franz-diffusion cell. The cell was filled with 23 ml of a mixture of 60 parts of a 0.9% NaCl-solution and 40 parts of polyethylene glycol 400 (v/v). At the sampling times the receptor fluid is completely renewed and analyzed for nimodipine content.
smiles,measurement,value
COC(=O)C1=C(C)NC(C)=C(C(=O)OC)C1c1ccccc1[N+](=O)[O-] [Nifedipine],recrystallization during the experiment,recrystallization

# From US6106856A, “Transdermal delivery of calcium channel blockers, such as nifedipine” (The Board of Governors for Higher Education, State of Rhode …, priority 1995, dated 2000)
